PubChem BioAssay AID1224831 | NIAID – 2016
Assay: 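Genes that support or restrain LPS-induced TNF-alpha reporter activity in macrophage-like cells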 (follow-up of hits). Cells: human THP-1 B5 monocytic leukaemia cells carrying a TNF promoter luciferase reporter, made macrophage-like with PMA. Reagent: single siRNA against human genes, 50 nM. Duration: about 68 h of knock-down, then 4 h LPS. Challenge: LPS (Salmonella minnesota, TLR-grade) at 10 ng/ml for 4 h; PMA 5 ng/ml present during knock-down. Measured: 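TNF promoter reporter read as dual luciferase ratio after 4 h LPS, normalised per plate to its median, given as replicate mean robust z-score per siRNA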. Direction: TNF reporter z-score: higher = stronger LPS-induced TNF reporter signal; z-score, median over gene's siRNAs: higher = stronger TNF reporter signal across the gene's siRNAs. Rule for the call: 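Active when the replicate mean z-score is about -1 or lower, or about 1.5 or higher; lowered and raised TNF reporter signal both count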. Meaning of the calls: active = changed TNF reporter (either direction); inactive = little change.
The deposit covers about 3,500 reagents; below is a part drawn at random. 731 of all reagents (21%) were called active. 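Active means either lowered or raised reporter signal; the gene-median score did not drive the per-siRNA calls.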 The numbers tell different reagents against one gene apart.

PKM (pyruvate kinase M1/2) #1 → TNF reporter z-score, replicate mean: 0.73; z-score, median over gene's siRNAs: 0.525; activity call: inactive
PKM (pyruvate kinase M1/2) #2 → TNF reporter z-score, replicate mean: -0.64; z-score, median over gene's siRNAs: 0.525; activity call: inactive
PKM (pyruvate kinase M1/2) #3 → TNF reporter z-score, replicate mean: -0.04; z-score, median over gene's siRNAs: 0.525; activity call: inactive
PKM (pyruvate kinase M1/2) #4 → TNF reporter z-score, replicate mean: 0.77; z-score, median over gene's siRNAs: 0.525; activity call: inactive
PKM (pyruvate kinase M1/2) #5 → TNF reporter z-score, replicate mean: 0.32; z-score, median over gene's siRNAs: 0.525; activity call: inactive
PKM (pyruvate kinase M1/2) #6 → TNF reporter z-score, replicate mean: 1.88; z-score, median over gene's siRNAs: 0.525; activity call: active
P2RY14 (purinergic receptor P2Y14) #1 → TNF reporter z-score, replicate mean: 0.7; z-score, median over gene's siRNAs: -0.055; activity call: inactive
P2RY14 (purinergic receptor P2Y14) #2 → TNF reporter z-score, replicate mean: -1.32; z-score, median over gene's siRNAs: -0.055; activity call: active
P2RY14 (purinergic receptor P2Y14) #3 → TNF reporter z-score, replicate mean: -0.55; z-score, median over gene's siRNAs: -0.055; activity call: inactive
P2RY14 (purinergic receptor P2Y14) #4 → TNF reporter z-score, replicate mean: -0.42; z-score, median over gene's siRNAs: -0.055; activity call: inactive
P2RY14 (purinergic receptor P2Y14) #5 → TNF reporter z-score, replicate mean: 0.31; z-score, median over gene's siRNAs: -0.055; activity call: inactive
P2RY14 (purinergic receptor P2Y14) #6 → TNF reporter z-score, replicate mean: 0.89; z-score, median over gene's siRNAs: -0.055; activity call: inactive
FSIP2 (fibrous sheath interacting protein 2) #1 → TNF reporter z-score, replicate mean: -1.67; z-score, median over gene's siRNAs: -0.03; activity call: active
FSIP2 (fibrous sheath interacting protein 2) #2 → TNF reporter z-score, replicate mean: -0.04; z-score, median over gene's siRNAs: -0.03; activity call: inactive
FSIP2 (fibrous sheath interacting protein 2) #3 → TNF reporter z-score, replicate mean: 0.2; z-score, median over gene's siRNAs: -0.03; activity call: inactive
FSIP2 (fibrous sheath interacting protein 2) #4 → TNF reporter z-score, replicate mean: -0.02; z-score, median over gene's siRNAs: -0.03; activity call: inactive
FSIP2 (fibrous sheath interacting protein 2) #5 → TNF reporter z-score, replicate mean: -0.39; z-score, median over gene's siRNAs: -0.03; activity call: inactive
FSIP2 (fibrous sheath interacting protein 2) #6 → TNF reporter z-score, replicate mean: 0.53; z-score, median over gene's siRNAs: -0.03; activity call: inactive
ORM2 (orosomucoid 2) #1 → TNF reporter z-score, replicate mean: 0.28; z-score, median over gene's siRNAs: 0.07; activity call: inactive
ORM2 (orosomucoid 2) #2 → TNF reporter z-score, replicate mean: -0.24; z-score, median over gene's siRNAs: 0.07; activity call: inactive
ORM2 (orosomucoid 2) #3 → TNF reporter z-score, replicate mean: 1.88; z-score, median over gene's siRNAs: 0.07; activity call: active
ORM2 (orosomucoid 2) #4 → TNF reporter z-score, replicate mean: -0.14; z-score, median over gene's siRNAs: 0.07; activity call: inactive
ORM2 (orosomucoid 2) #5 → TNF reporter z-score, replicate mean: 0.48; z-score, median over gene's siRNAs: 0.07; activity call: inactive
ORM2 (orosomucoid 2) #6 → TNF reporter z-score, replicate mean: -0.92; z-score, median over gene's siRNAs: 0.07; activity call: inactive
SLC15A2 #1 → TNF reporter z-score, replicate mean: -0.2; z-score, median over gene's siRNAs: -0.235; activity call: inactive
SLC15A2 #2 → TNF reporter z-score, replicate mean: -0.27; z-score, median over gene's siRNAs: -0.235; activity call: inactive
SLC15A2 #3 → TNF reporter z-score, replicate mean: 1.12; z-score, median over gene's siRNAs: -0.235; activity call: inactive
SLC15A2 #4 → TNF reporter z-score, replicate mean: -0.64; z-score, median over gene's siRNAs: -0.235; activity call: inactive
SLC15A2 #5 → TNF reporter z-score, replicate mean: -1.43; z-score, median over gene's siRNAs: -0.235; activity call: active
SLC15A2 #6 → TNF reporter z-score, replicate mean: -0.03; z-score, median over gene's siRNAs: -0.235; activity call: inactive
